According to US7906334B2, “Method for reproducing conifers by somatic embryogenesis using lactose as a carbon source” (Cellfor Inc., priority 2003, dated 2011):

Tests used:
[1] = test system: Douglas fir tissue (DF-7A); assay: Changes of carbohydrates in suspension media (enzymatic BioAnalysis); type: cell-based, Pseudotsuga menziesii (Douglas fir); details: for Decreased (%) / Sugar in medium After use (%): DF-7A, one week; for Sugar in medium After use (%): before use 0.5% glucose, 0.5% galactose, 1% lactose, 0.5% mannitol; for metabolism by Douglas fir tissue: conclusion in words
[2] = test system: loblolly pine lines LP3 and LP6; assay: Carbohydrate metabolism: sugar analysis of liquid media; type: cell-based, Pinus taeda (loblolly pine); details: for % sugar missing (utilised): sugar in media at the start: sucrose 1.0%, lactose 1.5%

With `OC[C@@H](O)[C@@H](O)[C@H](O)[C@H](O)CO` [mannitol, reference compound] as the compound, how does the “Decreased (%)” value [1] read?
The value was 0%.

What about the “Sugar in medium After use (%)” value [1] of the same compound?
The value was 0.5%.

What about the “metabolism by Douglas fir tissue” value [1] of the same compound?
The value was “not metabolised”.

What does the source list for `OC[C@H]1O[C@@](CO)(O[C@H]2O[C@H](CO)[C@@H](O)[C@H](O)[C@H]2O)[C@@H](O)[C@@H]1O` [Sucrose, sucrose]?
day at which sucrose was completely hydrolysed ([2]; both lines, first week of culture in TX maintenance medium): 5 days; % sugar missing (utilised) [2]: 30%

`O=C[C@H](O)[C@@H](O)[C@@H](O)[C@H](O)CO` [Galactose] was tested. Which “Sugar in medium After use (%)” value [1] did it give?
Its value is 0.097%.

And the “metabolism by Douglas fir tissue” value [1]?
The value was “can be utilised slowly”.

For `OC[C@H]1O[C@@H](O[C@H]2[C@H](O)[C@@H](O)C(O)O[C@@H]2CO)[C@H](O)[C@@H](O)[C@H]1O` (some centres unmarked) [Lactose], which “% sugar missing (utilised)” value [2] is on record?
Its value is 12%.

What about the “Decreased (%)” value [1] of the same compound?
Its value is 0.01%.

What about the “Sugar in medium After use (%)” value [1] of the same compound?
Its value is 0.99%.

What about the “metabolism by Douglas fir tissue” value [1] of the same compound?
The value was “not metabolised”.
